Test system: Reticulitermes
Assay: AWPA E1-97 treated southern yellow pine wood block termite test
Format: in vivo
Conditions: treated wood blocks
Description: Compounds of Formula I were evaluated using standard evaluation methodology as prescribed by the American Wood Preservers Association Standard AWPA E1-97, incorporated herein by reference, using a species of the destructive termite, Reticulitermes.
In this test replicate containers containing damp sand and southern yellow pine wood blocks treated with the compound are used. Termites are introduced into the test container and after four weeks the containers are disassembled and the wood blocks are evaluated for termite damage. Termite mortality is also evaluated.

Compound	End Use Level
CCOP(=S)(OCC)Oc1nc(Cl)c(Cl)cc1Cl [Comparative, chlorpyrifos, reference compound]	0.288 kg/m^3
O=C(Nc1c(Br)cc(OC(F)(F)F)cc1Br)c1sc(C(F)(F)F)nc1C(F)(F)F [Compound 5]	0.384 kg/m^3
